Laboratory results: PubChem BioAssay AID1259308 (NCATS, 2017)

Purpose: 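Candidate targets for better recombinant protein yield in mammalian cells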 (primary screen)
Cells: human HEK293 embryonic kidney cells stably expressing firefly luciferase (HEK-CMV-Luc2-Hygro)
Reagents: single siRNA against human genes, 0.8 pmol siRNA per well
Duration: 72 h
Measured: 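Reporter luminescence and viable-cell signal on separate replicate plates, given as percent of non-targeting control and median/MAD z-scores, plus per-cell luciferase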
Scale: total luciferase, z-score and total luciferase, % of control: higher = more reporter protein produced
Hit rule: 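An siRNA counts as active if its total luciferase robust z-score exceeds 3; genes with two or more such siRNAs out of three were retested with fresh siRNAs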
Meaning of the calls: active = raised luciferase; inactive = no rise
Shown is a random part of about 59,000 deposited reagents. About 1,510 of all reagents (2.6%) count as active. 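Calls use total luciferase alone and ignore viability, so some active siRNAs may act by altering cell number.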 Entries without a mark were called inactive. Reagents against one gene are numbered here. Not all columns of the deposit are shown.

LSG1 (large 60S subunit nuclear export GTPase 1) #1
- total luciferase, z-score: -1.89
- total luciferase, % of control: 44.3

LSG1 (large 60S subunit nuclear export GTPase 1) #2
- total luciferase, z-score: -0.0336
- total luciferase, % of control: 81.2

LSG1 (large 60S subunit nuclear export GTPase 1) #3
- total luciferase, z-score: 4.95 (active)
- total luciferase, % of control: 180

SMYD2 (SET and MYND domain containing 2) #1
- total luciferase, z-score: -0.6
- total luciferase, % of control: 70

SMYD2 (SET and MYND domain containing 2) #2
- total luciferase, z-score: 0.64
- total luciferase, % of control: 94.6

SMYD2 (SET and MYND domain containing 2) #3
- total luciferase, z-score: -0.556
- total luciferase, % of control: 70.8

LARP1BP1 (LARP1B pseudogene 1) #1
- total luciferase, z-score: -1.52
- total luciferase, % of control: 51.6

LARP1BP1 (LARP1B pseudogene 1) #2
- total luciferase, z-score: 0.836
- total luciferase, % of control: 98.5

LARP1BP1 (LARP1B pseudogene 1) #3
- total luciferase, z-score: 0.757
- total luciferase, % of control: 97

RAB3B (RAB3B, member RAS oncogene family) #1
- total luciferase, z-score: 0.0425
- total luciferase, % of control: 82.7

RAB3B (RAB3B, member RAS oncogene family) #2
- total luciferase, z-score: 0.914
- total luciferase, % of control: 100

RAB3B (RAB3B, member RAS oncogene family) #3
- total luciferase, z-score: 1.17
- total luciferase, % of control: 105

SIAH2 (siah E3 ubiquitin protein ligase 2) #1
- total luciferase, z-score: 1.91
- total luciferase, % of control: 120

SIAH2 (siah E3 ubiquitin protein ligase 2) #2
- total luciferase, z-score: 0.76
- total luciferase, % of control: 97

SIAH2 (siah E3 ubiquitin protein ligase 2) #3
- total luciferase, z-score: 2.74
- total luciferase, % of control: 136

GABRR1 (gamma-aminobutyric acid type A receptor subunit rho1) #1
- total luciferase, z-score: -0.422
- total luciferase, % of control: 73.5

GABRR1 (gamma-aminobutyric acid type A receptor subunit rho1) #2
- total luciferase, z-score: -1.96
- total luciferase, % of control: 42.8

GABRR1 (gamma-aminobutyric acid type A receptor subunit rho1) #3
- total luciferase, z-score: -0.899
- total luciferase, % of control: 64

COX6B2 (cytochrome c oxidase subunit 6B2) #1
- total luciferase, z-score: 1.06
- total luciferase, % of control: 103

COX6B2 (cytochrome c oxidase subunit 6B2) #2
- total luciferase, z-score: -1.18
- total luciferase, % of control: 58.4

COX6B2 (cytochrome c oxidase subunit 6B2) #3
- total luciferase, z-score: -1.23
- total luciferase, % of control: 57.3

Ordered by “total luciferase, % of control” (high to low): some entries from above.
SIAH2 (siah E3 ubiquitin protein ligase 2) #3
- total luciferase, z-score: 2.74
- total luciferase, % of control: 136

SIAH2 (siah E3 ubiquitin protein ligase 2) #1
- total luciferase, z-score: 1.91
- total luciferase, % of control: 120

RAB3B (RAB3B, member RAS oncogene family) #3
- total luciferase, z-score: 1.17
- total luciferase, % of control: 105

SIAH2 (siah E3 ubiquitin protein ligase 2) #2
- total luciferase, z-score: 0.76
- total luciferase, % of control: 97

GABRR1 (gamma-aminobutyric acid type A receptor subunit rho1) #1
- total luciferase, z-score: -0.422
- total luciferase, % of control: 73.5

GABRR1 (gamma-aminobutyric acid type A receptor subunit rho1) #2
- total luciferase, z-score: -1.96
- total luciferase, % of control: 42.8

Additional entries follow.
SLC17A2 #1
- total luciferase, z-score: 0.364
- total luciferase, % of control: 89.1

SLC17A2 #2
- total luciferase, z-score: 0.261
- total luciferase, % of control: 87.1

SLC17A2 #3
- total luciferase, z-score: -0.984
- total luciferase, % of control: 62.3

CCDC110 (coiled-coil domain containing 110) #1
- total luciferase, z-score: -1.15
- total luciferase, % of control: 59.1

CCDC110 (coiled-coil domain containing 110) #2
- total luciferase, z-score: -0.854
- total luciferase, % of control: 64.9

CCDC110 (coiled-coil domain containing 110) #3
- total luciferase, z-score: 0.243
- total luciferase, % of control: 86.7

ANKRD26P1 (ankyrin repeat domain 26 pseudogene 1) #1
- total luciferase, z-score: -0.0283
- total luciferase, % of control: 81.3

ANKRD26P1 (ankyrin repeat domain 26 pseudogene 1) #2
- total luciferase, z-score: 1.01
- total luciferase, % of control: 102

ANKRD26P1 (ankyrin repeat domain 26 pseudogene 1) #3
- total luciferase, z-score: -0.821
- total luciferase, % of control: 65.5

TMEM132C (transmembrane protein 132C) #1
- total luciferase, z-score: 2.25
- total luciferase, % of control: 127

TMEM132C (transmembrane protein 132C) #2
- total luciferase, z-score: 0.384
- total luciferase, % of control: 89.5

TMEM132C (transmembrane protein 132C) #3
- total luciferase, z-score: 0.419
- total luciferase, % of control: 90.2

ZNF620 (zinc finger protein 620) #1
- total luciferase, z-score: -0.601
- total luciferase, % of control: 69.9

ZNF620 (zinc finger protein 620) #2
- total luciferase, z-score: -0.748
- total luciferase, % of control: 67

ZNF620 (zinc finger protein 620) #3
- total luciferase, z-score: 0.381
- total luciferase, % of control: 89.5

EXOC2 (exocyst complex component 2) #1
- total luciferase, z-score: 0.17
- total luciferase, % of control: 85.3

EXOC2 (exocyst complex component 2) #2
- total luciferase, z-score: -0.443
- total luciferase, % of control: 73.1

EXOC2 (exocyst complex component 2) #3
- total luciferase, z-score: 0.613
- total luciferase, % of control: 94.1

ZBTB49 (zinc finger and BTB domain containing 49) #1
- total luciferase, z-score: 1.2
- total luciferase, % of control: 106

ZBTB49 (zinc finger and BTB domain containing 49) #2
- total luciferase, z-score: 0.114
- total luciferase, % of control: 84.2

ZBTB49 (zinc finger and BTB domain containing 49) #3
- total luciferase, z-score: -1.95
- total luciferase, % of control: 43
